Assay results: publication doi:10.1101/2021.09.07.459348
No constants are given. Whether binding was seen depends on the method and setting. In cells and extracts the contact can be indirect.

The chains behind the UniProt entries cited, without tags or fusion partners.
UniProt Q14494: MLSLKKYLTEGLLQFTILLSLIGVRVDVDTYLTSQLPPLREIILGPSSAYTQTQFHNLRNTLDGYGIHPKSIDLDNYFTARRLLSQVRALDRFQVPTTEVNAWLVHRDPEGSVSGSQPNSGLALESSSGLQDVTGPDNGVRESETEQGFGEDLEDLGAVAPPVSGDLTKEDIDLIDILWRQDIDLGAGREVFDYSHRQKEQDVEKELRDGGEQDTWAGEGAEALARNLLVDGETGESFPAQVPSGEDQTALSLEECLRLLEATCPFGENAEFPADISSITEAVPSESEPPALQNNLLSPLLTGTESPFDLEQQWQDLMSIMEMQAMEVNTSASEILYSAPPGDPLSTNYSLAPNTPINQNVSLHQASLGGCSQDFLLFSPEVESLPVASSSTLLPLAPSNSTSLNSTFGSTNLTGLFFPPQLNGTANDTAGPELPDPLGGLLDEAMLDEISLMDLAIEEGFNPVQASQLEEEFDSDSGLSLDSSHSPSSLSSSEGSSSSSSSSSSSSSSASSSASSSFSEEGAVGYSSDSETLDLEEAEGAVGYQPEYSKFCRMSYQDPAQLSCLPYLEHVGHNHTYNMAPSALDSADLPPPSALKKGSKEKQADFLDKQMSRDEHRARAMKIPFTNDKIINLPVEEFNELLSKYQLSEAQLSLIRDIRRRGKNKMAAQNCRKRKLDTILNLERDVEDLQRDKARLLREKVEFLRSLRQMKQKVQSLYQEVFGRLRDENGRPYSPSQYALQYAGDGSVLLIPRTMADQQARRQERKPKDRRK

Target: T1, serine/threonine kinase 11 (STK11/LKB1) (human (endogenous in HEK293T)) (UniProt Q15831)
T1 sequence: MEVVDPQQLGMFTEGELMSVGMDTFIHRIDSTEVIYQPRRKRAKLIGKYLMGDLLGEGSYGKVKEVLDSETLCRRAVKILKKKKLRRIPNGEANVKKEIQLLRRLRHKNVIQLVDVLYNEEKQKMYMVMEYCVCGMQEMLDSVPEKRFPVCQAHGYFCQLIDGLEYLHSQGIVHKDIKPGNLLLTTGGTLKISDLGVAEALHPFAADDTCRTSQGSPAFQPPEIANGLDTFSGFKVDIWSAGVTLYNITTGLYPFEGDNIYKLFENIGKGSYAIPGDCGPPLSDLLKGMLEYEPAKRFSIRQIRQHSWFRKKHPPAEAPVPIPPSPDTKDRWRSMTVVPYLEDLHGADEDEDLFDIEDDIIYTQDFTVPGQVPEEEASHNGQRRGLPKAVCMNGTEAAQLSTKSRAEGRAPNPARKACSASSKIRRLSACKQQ
Experiment: co-IP

In the case of “Nuclear factor erythroid 2 like 1 (NFE2L1/Nrf1) (from UniProt Q14494 1-772)”, the binding is reported as “no binding”.
